{"sequences": {"note": "Protein sequences, listed by entry. Tags and fused reporters are not part of them.", "UniProt Q93034": "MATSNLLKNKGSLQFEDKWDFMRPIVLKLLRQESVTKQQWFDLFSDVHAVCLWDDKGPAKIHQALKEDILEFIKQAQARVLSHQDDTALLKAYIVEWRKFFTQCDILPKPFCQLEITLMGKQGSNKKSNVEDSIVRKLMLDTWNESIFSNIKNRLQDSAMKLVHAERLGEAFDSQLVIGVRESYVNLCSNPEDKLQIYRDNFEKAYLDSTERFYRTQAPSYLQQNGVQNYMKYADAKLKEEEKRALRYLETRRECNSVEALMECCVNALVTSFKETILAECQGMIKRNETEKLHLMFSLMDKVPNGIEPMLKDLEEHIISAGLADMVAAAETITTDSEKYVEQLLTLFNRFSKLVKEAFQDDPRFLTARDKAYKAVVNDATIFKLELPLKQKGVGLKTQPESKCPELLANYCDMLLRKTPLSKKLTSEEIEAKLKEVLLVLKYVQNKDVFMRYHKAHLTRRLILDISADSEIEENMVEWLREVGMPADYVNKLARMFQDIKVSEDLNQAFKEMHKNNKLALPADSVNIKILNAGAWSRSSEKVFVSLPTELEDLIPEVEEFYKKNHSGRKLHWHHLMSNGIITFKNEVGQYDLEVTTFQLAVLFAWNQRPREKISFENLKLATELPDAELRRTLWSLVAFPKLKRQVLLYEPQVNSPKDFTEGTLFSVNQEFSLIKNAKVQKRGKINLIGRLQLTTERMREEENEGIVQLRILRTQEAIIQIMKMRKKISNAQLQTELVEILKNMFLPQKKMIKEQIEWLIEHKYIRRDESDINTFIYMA", "UniProt Q9UBF6": "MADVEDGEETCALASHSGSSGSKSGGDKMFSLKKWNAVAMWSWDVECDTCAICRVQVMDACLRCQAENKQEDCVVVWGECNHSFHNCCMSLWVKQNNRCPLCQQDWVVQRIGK"}, "source": "paper doi:10.1101/2023.06.16.545386", "target": "3xFlag-tagged CUL5 (UniProt Q93034)", "experiment": "co-IP; FLAG beads loaded with 5 mg lysate of iPSC-derived neurons overexpressing CUL5-3xFlag or GFP-FLAG; 20 mM HEPES NaOH pH 7.4, 150 mM NaCl, 0.2% NP40; 4 °C, 2 hours; eluate blotted", "note": "Results are given in words; binding and its absence hold for the method and conditions named. Binding seen in cells or lysates may run through a third protein. Some entries that bind do so weakly or less than the wild type.", "data": [{"substance": "RNF7 (from UniProt Q9UBF6 1-113)", "values": [{"measurement": "binding", "result": "binds"}]}]}
